{
  "source": "PubChem BioAssay AID540256",
  "about": "(National Center for Advancing Translational Sciences (NCATS), 2011)",
  "note": "Out of some 300,000 compounds screened, about 3,700 (1.2%) were called active. Inconclusive means that the source gave no clear call. Such entries were picked first, then a sample of the others. The call rests on the fitted dose curve; tested in HEK293 cells. Potencies of inconclusive entries are doubtful fits and often do not repeat. Potency means the concentration at half of the fitted maximal effect.",
  "data": [
    {"experiment": "qHTS for Inhibitors of binding or entry into cells for Lassa Virus; further: nearly all actives have a fitted effect of over 50% in size", "settings": "Lassa virus pseudotype entry inhibition, cell reporter; series mostly up to 37.9 µM", "values": [
      {"smiles": "N#C/C(=C\\c1ccc(N2CCOCC2)cc1)c1ccccc1", "Potency": "inconclusive: 29.1 µM [inhibitor, single point]"},
      {"smiles": "CCc1ccc(NC(=O)c2cnn(-c3ccccc3)c2-n2cccc2)cc1", "Potency": "inactive"},
      {"smiles": "CCOC(=O)C1CCCN(C(=O)CCC(=O)Nc2ccc3nc(N4CCOCC4)cc(C)c3c2)C1", "note": "(stereo not drawn)", "Potency": "inconclusive: 2.51 µM [activator, full curve, poor fit]"},
      {"smiles": "Cc1cccc(NC(=O)c2ccc(-c3ccccc3)s2)c1", "Potency": "inconclusive: 8.91 µM [activator, partial curve, poor fit]"},
      {"smiles": "Cc1ccc(C)c(NC(=O)C(NCC(C)(C)N2CCOCC2)c2ccccc2)c1", "note": "(stereo not drawn)", "Potency": "inconclusive: 1.26 µM [inhibitor, single point]"},
      {"smiles": "CN(C)c1ccc(C2CC(c3cccc(NS(C)(=O)=O)c3)=NN2C(=O)c2ccccc2)cc1", "note": "(stereo not drawn)", "Potency": "inconclusive: 7.08 µM [inhibitor, partial curve, poor fit]"},
      {"smiles": "Cc1ccc(Cc2nc3ccccc3[nH]2)cc1", "Potency": "inactive"},
      {"smiles": "Cc1cc(C)cc(C(=O)NCC(=O)OCC(=O)Nc2cccnc2Cl)c1", "Potency": "inactive"},
      {"smiles": "COc1cc(/C=N/NC(=O)CNS(=O)(=O)c2ccc(C)cc2)cc(OC)c1OC", "Potency": "inconclusive: 1.26 µM [inhibitor, single point]"},
      {"smiles": "Cc1cccc(NC(=O)CNC(=O)CN2C(=O)NC3(CCCCC3C)C2=O)c1C", "note": "(stereo not drawn)", "Potency": "inconclusive: 5.62 µM [activator, single point]"},
      {"smiles": "CCOc1ccc(N=Cc2c(O)n(Cc3ccccc3)c(=S)[nH]c2=O)cc1", "Potency": "inconclusive: 1.58 µM [inhibitor, partial curve, poor fit]"},
      {"smiles": "CC(C)N(C(=S)NC1CC2CCC1C2)c1ccccc1", "note": "(stereo not drawn)", "Potency": "inactive"},
      {"smiles": "O=C(COc1ccccc1Cl)Nc1nc(-c2ccncc2)cs1", "Potency": "inconclusive: 35.5 µM [inhibitor, single point]"},
      {"smiles": "CCn1c(C)nc2cc(C(=O)N/N=C/c3cccc(O)c3O)ccc21", "Potency": "inconclusive: 35.5 µM [inhibitor, single point]"},
      {"smiles": "CCCCNC1C(CC)C(CCC)C(C#N)(C#N)C1(C#N)C#N", "note": "(stereo not drawn)", "Potency": "inconclusive: 11.2 µM [inhibitor, partial curve, poor fit]"},
      {"smiles": "Cc1cccc(OC(C)C(=O)Nc2cc(S(=O)(=O)N3CCCCC3)ccc2C)c1", "note": "(stereo not drawn)", "Potency": "inconclusive: 39.8 µM [inhibitor, partial curve, poor fit]"},
      {"smiles": "O=C(Nc1cccc(S(=O)(=O)Nc2ccccc2F)c1)c1ccc2ccccc2n1", "Potency": "inconclusive: 20 µM [inhibitor, single point]"},
      {"smiles": "CC(C)NC(=O)N1CCCN(c2nc3ccc(Cl)cc3s2)CC1", "Potency": "inactive"},
      {"smiles": "c1ccc(OCCOCCN2CCN(C(c3ccccc3)c3ccccc3)CC2)cc1", "Potency": "inconclusive: 2.82 µM [inhibitor, full curve, poor fit]"},
      {"smiles": "COc1ccc(-n2ncc(C(=O)NCc3ccco3)c2C2CCN(C(=O)OC(C)(C)C)CC2)cc1", "Potency": "inconclusive: 11.2 µM [inhibitor, partial curve, poor fit]"},
      {"smiles": "COc1ccc(OC)c(S(=O)(=O)N2CCC3(CC2)CC(=O)c2ccccc2O3)c1", "Potency": "inconclusive: 3.98 µM [inhibitor, single point]"},
      {"smiles": "O=C(Nc1cccnc1)c1ccc(COc2ccccc2Br)o1", "Potency": "inconclusive: 1.3 µM [inhibitor, partial curve, poor fit]"},
      {"smiles": "O=C(NCC(c1cccnc1)N1CCc2ccccc21)c1cccc(Br)c1", "note": "(stereo not drawn)", "Potency": "inconclusive: 22.4 µM [inhibitor, single point]"},
      {"smiles": "O=[N+]([O-])c1ccc(N=NN(CCO)CCO)cc1", "Potency": "inactive"},
      {"smiles": "O=C1c2ccccc2-c2ccc(C(=O)N3CCCCC3)cc21", "Potency": "inactive"},
      {"smiles": "CCOC(=O)Cc1cc(-c2ccc(O)cc2)nc2ccc3ccccc3c12", "Potency": "inactive"},
      {"smiles": "CCOC(=O)c1cc(-c2ccc(OC)cc2)nc2c1c(C)nn2CCC(N)=S", "Potency": "inconclusive: 25.1 µM [inhibitor, single point]"},
      {"smiles": "Cc1ccc(C)c(S(=O)(=O)N2CCCC2CNC(=O)C(=O)NCc2ccco2)c1", "note": "(stereo not drawn)", "Potency": "inactive"},
      {"smiles": "Cc1ccccc1CNC(=O)c1cnc2sc(N3CCC(C)CC3)nn2c1=O", "Potency": "inconclusive: 1.12 µM [inhibitor, full curve, poor fit]"},
      {"smiles": "O=C(Nc1ccc(F)cc1)Nc1nnc(Cc2ccccc2F)s1", "Potency": "inconclusive: 7.08 µM [inhibitor, partial curve]"},
      {"smiles": "COc1cc2ccccc2cc1C(=O)Nc1cccc(-c2nc3cc(C)c(C)cc3o2)c1", "Potency": "inconclusive: 5.62 µM [activator, single point]"},
      {"smiles": "C=Cc1ccc(Cn2c(C(=O)O)c(CNCc3ccc(F)cc3)c3ccc(C)cc32)cc1", "Potency": "inconclusive: 8.91 µM [inhibitor, partial curve, poor fit]"},
      {"smiles": "Cc1cc([N+](=O)[O-])ccc1N", "Potency": "inactive"},
      {"smiles": "CCC(C)(C)NC(=O)C1CCN(S(=O)(=O)c2ccc3c(c2)CCCN3C(C)=O)CC1", "Potency": "inconclusive: 0.316 µM [inhibitor, full curve, poor fit]"},
      {"smiles": "O=C(CCCOc1ccccc1)Nc1ccc(Br)cc1", "Potency": "inconclusive: 11.2 µM [inhibitor, single point]"},
      {"smiles": "CCCn1c(SCC(=O)Nc2ccccc2-c2ccccc2)nnc1-c1ccoc1C", "Potency": "inconclusive: 6.51 µM [inhibitor, partial curve, poor fit]"},
      {"smiles": "O=C(NNC(=O)c1cccc2ccccc12)c1ccco1", "Potency": "inactive"},
      {"smiles": "COC(=O)c1cn(CC(=O)NCc2cccs2)c2ccccc12", "Potency": "inconclusive: 10.3 µM [activator, partial curve, poor fit]"},
      {"smiles": "COc1cccc(CN2CCN(C(=O)c3cccc4ccccc34)CC2)c1OC", "Potency": "inactive"},
      {"smiles": "Cc1cccc(C(=O)Nc2ccc(S(=O)(=O)N3CCC(c4nc5ccccc5s4)CC3)cc2)c1", "Potency": "inactive"},
      {"smiles": "CC1(C)Cc2c(cnn2-c2cccc(F)c2)C(NC(=O)CCN2CCCC2=O)C1", "note": "(stereo not drawn)", "Potency": "inconclusive: 1 µM [activator, full curve, poor fit]"},
      {"smiles": "Cc1cc(C)c(C#N)c(SCCS(=O)(=O)c2ccc(Cl)cc2)n1", "Potency": "inconclusive: 35.5 µM [inhibitor, single point]"},
      {"smiles": "O=S(=O)(Nc1ccc2c(c1)nc1n2CCN(Cc2ccccc2)C1)c1ccc(F)cc1", "Potency": "inactive"}
    ]}
  ]
}
